Experimental findings from PMC12234153 are described below.

For this assay, the target named is T1, SMAD4-FLAG (human), Q13485.
T1 chain: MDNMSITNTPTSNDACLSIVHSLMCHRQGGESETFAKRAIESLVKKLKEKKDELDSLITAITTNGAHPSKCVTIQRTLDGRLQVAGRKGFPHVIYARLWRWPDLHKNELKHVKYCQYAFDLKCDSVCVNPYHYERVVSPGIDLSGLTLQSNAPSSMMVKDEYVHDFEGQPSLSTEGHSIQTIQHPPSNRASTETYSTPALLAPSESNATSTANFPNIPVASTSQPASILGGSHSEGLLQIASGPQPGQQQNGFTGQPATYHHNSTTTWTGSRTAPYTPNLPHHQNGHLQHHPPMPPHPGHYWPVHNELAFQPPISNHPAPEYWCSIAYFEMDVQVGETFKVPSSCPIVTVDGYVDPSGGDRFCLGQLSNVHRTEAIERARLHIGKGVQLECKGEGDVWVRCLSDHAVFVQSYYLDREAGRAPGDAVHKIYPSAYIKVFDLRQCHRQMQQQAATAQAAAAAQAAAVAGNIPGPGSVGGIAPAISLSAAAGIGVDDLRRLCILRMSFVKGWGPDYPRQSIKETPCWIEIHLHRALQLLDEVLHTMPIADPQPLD
Description: co-IP; DHHC7 KO HEK293T cells transfected with WT or catalytically inactive (MUT) DHHC7-HA and the indicated SMAD2-HA and SMAD4-FLAG constructs; which protein was precipitated not given. To be noted: remark: other sources report otherwise.

Results are given in words; binding and its absence hold for the method and conditions named. In cells and extracts the contact can be indirect. Some binding calls cover weakened binding; strength is not graded here. Tags and fused reporters may be left off the sequences shown.

B1: SMAD2-HA (wild type), Q15796 1-467 (protein)
chain: MSSILPFTPPVVKRLLGWKKSAGGSGGAGGGEQNGQEEKWCEKAVKSLVKKLKKTGRLDELEKAITTQNCNTKCVTIPSTCSEIWGLSTPNTIDQWDTTGLYSFSEQTRSLDGRLQVSHRKGLPHVIYCRLWRWPDLHSHHELKAIENCEYAFNLKKDEVCVNPYHYQRVETPVLPPVLVPRHTEILTELPPLDDYTHSIPENTNFPAGIEPQSNYIPETPPPGYISEDGETSDQQLNQSMDTGSPAELSPTTLSPVNHSLDLQPVTYSEPAFWCSIAYYELNQRVGETFHASQPSLTVDGFTDPSNSERFCLGLLSNVNRNATVEMTRRHIGRGVRLYYIGGEVFAECLSDSAIFVQSPNCNQRYGWHPATVCKIPPGCNLKIFNNQEFAALLAQSVNQGFEAVYQLTRMCTIRMSFVKGWGAEYRRQTVTSTPCWIELHLNGPLQWLDKVLTQMGSPSVRCSSMS
As to B1, the binding result is reported as “binds”.
